Measurements as given in the supplement of paper PMC10849652.
The other results are listed elsewhere or left out.

Amino acid sequences for entries named in this document (tags omitted). A change or cut given only in a name is not applied to a line headed by its entry.
UniProt Q969H6: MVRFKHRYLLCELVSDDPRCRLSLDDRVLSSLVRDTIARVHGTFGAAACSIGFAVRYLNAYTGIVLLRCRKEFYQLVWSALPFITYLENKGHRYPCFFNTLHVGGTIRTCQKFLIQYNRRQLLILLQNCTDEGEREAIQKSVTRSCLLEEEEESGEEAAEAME
UniProt P0CG38, whole entry, looked up: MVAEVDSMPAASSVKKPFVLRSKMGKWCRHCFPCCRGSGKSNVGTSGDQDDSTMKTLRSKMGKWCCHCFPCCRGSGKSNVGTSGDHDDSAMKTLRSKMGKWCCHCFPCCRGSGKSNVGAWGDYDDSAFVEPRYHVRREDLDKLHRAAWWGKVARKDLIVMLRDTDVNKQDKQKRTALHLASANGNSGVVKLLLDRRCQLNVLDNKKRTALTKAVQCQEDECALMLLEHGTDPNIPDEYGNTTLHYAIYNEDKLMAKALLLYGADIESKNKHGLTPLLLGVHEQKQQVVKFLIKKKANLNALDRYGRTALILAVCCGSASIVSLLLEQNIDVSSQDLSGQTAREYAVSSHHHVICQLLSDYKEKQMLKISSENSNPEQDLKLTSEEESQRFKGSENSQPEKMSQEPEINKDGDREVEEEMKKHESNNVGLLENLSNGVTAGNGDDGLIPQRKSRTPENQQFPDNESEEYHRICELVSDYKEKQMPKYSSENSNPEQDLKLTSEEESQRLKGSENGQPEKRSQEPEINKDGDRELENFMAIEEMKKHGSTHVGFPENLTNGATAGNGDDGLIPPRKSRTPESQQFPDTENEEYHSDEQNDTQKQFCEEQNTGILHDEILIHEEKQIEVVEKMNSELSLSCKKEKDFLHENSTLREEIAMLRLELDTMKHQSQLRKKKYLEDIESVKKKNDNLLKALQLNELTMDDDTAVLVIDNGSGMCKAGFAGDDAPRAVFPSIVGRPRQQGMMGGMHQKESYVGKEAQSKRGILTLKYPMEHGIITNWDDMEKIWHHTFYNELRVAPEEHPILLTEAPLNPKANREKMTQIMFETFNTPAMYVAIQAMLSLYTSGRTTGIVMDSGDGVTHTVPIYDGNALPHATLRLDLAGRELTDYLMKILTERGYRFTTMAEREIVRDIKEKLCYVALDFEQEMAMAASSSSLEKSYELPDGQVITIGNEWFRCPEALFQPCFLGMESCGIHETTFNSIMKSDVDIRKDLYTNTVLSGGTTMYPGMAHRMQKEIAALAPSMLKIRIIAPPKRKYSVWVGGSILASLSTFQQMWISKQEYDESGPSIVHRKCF
UniProt O75145: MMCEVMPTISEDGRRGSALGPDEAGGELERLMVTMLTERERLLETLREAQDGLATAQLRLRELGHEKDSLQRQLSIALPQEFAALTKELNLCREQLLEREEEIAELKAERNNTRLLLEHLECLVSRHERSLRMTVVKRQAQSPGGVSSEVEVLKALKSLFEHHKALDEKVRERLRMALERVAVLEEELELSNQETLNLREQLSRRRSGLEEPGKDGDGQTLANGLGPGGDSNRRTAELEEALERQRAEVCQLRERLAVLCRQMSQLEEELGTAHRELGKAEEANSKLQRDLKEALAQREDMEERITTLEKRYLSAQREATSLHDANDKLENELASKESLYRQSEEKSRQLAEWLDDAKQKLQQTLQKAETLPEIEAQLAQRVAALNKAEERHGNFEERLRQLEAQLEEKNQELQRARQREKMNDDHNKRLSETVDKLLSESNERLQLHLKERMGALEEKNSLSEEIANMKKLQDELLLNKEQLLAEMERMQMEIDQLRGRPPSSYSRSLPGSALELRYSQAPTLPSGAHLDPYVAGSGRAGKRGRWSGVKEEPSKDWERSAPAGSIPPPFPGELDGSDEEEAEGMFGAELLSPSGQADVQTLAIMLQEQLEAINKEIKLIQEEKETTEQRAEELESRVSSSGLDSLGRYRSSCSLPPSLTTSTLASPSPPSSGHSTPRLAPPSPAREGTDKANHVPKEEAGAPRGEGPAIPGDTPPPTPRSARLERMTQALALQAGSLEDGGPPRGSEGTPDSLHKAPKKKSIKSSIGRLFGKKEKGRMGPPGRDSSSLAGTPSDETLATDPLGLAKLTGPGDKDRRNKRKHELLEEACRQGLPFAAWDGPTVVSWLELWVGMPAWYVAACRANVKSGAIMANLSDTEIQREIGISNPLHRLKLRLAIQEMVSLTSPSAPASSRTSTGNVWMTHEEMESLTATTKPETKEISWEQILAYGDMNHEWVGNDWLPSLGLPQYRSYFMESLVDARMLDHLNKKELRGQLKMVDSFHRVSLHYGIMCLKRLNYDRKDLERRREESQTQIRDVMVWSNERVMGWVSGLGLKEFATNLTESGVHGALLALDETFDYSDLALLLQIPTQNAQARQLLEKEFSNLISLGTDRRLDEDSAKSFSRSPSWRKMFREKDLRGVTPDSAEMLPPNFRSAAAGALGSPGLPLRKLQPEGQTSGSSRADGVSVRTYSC
UniProt Q9NUX5: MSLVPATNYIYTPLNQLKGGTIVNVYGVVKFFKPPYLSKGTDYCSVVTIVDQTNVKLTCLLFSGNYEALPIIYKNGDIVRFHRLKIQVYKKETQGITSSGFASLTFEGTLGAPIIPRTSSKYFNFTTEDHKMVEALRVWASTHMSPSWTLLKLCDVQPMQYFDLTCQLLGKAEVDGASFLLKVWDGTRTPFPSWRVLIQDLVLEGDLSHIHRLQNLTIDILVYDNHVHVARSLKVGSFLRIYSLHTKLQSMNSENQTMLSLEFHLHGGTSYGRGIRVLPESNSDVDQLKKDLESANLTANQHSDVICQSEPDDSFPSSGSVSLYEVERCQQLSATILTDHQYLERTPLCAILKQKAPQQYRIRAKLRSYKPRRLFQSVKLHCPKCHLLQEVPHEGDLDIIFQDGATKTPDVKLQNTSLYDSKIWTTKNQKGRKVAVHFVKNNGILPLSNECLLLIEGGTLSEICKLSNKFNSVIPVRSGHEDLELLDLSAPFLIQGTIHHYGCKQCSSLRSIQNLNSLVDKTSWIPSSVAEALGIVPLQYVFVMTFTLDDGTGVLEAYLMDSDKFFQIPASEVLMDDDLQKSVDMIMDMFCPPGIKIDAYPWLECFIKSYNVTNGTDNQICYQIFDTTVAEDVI
UniProt Q9NRF9: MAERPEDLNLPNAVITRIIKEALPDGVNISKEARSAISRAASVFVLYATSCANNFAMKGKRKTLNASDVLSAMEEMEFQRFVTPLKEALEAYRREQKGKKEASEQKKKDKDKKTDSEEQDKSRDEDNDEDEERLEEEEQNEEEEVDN
UniProt P0CAP2, whole entry, looked up: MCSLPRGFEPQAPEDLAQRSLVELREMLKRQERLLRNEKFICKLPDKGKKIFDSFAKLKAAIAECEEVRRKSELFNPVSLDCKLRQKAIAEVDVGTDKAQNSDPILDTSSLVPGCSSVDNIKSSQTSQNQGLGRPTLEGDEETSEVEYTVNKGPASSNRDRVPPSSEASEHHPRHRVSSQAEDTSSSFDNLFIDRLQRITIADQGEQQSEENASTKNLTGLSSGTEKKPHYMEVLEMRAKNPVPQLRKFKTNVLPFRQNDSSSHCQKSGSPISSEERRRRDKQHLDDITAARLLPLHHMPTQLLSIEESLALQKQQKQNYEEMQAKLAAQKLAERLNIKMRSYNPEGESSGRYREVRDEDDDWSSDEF
UniProt Q9H1D9: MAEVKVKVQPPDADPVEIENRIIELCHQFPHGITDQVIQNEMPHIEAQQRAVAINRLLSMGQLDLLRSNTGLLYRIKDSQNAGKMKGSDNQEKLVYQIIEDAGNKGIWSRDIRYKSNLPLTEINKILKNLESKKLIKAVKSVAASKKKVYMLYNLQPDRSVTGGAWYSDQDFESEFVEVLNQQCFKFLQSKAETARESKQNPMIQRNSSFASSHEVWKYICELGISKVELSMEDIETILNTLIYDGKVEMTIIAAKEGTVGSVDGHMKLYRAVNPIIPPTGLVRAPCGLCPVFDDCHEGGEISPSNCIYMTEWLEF
UniProt Q9GZS1, whole entry, looked up: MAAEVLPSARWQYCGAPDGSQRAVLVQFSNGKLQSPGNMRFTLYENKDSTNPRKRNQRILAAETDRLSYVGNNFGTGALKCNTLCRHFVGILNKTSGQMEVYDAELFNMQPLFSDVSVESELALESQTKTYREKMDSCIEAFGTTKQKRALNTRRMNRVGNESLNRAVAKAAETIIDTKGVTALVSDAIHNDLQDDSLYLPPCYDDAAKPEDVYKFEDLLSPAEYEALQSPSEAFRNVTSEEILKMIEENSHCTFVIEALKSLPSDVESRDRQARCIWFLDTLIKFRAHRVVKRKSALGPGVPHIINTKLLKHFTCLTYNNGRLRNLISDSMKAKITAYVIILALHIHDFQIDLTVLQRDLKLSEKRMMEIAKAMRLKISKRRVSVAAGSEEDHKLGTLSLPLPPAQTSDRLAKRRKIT
UniProt P14859: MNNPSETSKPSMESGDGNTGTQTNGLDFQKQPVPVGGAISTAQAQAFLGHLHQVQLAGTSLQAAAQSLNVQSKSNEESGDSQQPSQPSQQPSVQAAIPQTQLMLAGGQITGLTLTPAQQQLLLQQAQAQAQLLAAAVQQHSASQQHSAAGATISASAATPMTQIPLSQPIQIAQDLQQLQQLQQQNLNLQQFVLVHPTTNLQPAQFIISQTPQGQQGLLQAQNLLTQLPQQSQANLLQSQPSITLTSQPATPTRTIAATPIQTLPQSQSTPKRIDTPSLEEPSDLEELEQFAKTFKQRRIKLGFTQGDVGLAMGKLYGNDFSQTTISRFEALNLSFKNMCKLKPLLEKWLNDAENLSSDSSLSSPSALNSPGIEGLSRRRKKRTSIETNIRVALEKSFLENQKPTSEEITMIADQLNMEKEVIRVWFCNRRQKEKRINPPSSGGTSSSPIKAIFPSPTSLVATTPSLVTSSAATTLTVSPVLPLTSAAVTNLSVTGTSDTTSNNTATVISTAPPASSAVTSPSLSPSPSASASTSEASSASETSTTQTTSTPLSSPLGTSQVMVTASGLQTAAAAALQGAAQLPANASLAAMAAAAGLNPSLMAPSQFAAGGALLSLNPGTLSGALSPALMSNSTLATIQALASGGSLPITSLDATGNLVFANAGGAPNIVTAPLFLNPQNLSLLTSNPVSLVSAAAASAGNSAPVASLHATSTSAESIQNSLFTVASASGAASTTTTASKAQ
UniProt Q99575: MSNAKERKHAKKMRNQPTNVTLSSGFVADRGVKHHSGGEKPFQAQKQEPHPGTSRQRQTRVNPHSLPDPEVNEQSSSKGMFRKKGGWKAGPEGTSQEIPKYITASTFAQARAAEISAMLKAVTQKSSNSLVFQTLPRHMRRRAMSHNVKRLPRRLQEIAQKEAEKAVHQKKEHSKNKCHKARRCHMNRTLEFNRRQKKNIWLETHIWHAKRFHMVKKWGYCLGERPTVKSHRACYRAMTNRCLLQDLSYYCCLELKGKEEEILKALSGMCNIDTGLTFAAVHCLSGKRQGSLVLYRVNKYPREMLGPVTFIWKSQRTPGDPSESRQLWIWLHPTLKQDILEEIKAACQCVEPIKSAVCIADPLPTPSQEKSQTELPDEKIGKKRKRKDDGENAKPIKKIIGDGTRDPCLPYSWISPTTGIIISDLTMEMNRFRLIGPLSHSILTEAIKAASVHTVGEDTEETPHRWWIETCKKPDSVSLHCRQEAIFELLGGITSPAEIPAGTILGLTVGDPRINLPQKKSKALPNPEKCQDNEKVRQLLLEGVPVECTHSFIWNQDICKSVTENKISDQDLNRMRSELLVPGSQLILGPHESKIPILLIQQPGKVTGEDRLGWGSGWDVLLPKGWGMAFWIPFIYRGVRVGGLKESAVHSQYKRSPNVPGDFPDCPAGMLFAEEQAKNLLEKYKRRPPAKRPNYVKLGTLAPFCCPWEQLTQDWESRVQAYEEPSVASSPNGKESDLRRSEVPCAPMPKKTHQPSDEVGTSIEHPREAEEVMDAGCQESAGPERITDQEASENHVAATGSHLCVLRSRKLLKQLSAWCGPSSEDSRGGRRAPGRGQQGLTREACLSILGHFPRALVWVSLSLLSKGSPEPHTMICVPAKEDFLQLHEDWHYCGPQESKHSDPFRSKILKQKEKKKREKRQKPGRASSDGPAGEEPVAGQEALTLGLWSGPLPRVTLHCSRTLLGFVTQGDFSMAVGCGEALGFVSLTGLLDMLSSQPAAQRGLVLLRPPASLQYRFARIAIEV
UniProt O75439: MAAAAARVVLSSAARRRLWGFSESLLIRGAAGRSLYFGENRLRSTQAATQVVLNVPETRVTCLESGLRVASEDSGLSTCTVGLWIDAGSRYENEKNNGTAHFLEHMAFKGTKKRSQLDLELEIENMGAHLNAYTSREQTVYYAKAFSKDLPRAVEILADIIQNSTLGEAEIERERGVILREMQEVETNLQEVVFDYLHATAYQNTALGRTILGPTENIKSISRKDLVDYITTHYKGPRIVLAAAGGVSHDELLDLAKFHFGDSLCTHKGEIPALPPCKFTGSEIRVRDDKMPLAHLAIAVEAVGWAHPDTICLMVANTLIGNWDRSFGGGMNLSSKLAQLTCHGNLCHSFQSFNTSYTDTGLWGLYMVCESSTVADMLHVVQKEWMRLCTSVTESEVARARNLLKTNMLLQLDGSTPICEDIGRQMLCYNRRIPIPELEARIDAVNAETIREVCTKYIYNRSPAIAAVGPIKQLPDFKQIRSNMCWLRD

What was measured:
Assay in all cases: log2 fold change, soluble protein after heating vs DMSO (PISA); higher = thermal stabilisation; K562 lysate, 10 uM; active = over 0.2 and 3.5 SD of the protein, either way, in both replicates (recomputed)
[1] = compound: CN1CC[C@H](c2c(O)cc(O)c3c(=O)cc(-c4ccccc4Cl)oc23)[C@H](O)C1 [alvocidib]
Method in brief: (§1)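 Dounce homogenisation of K562 pellets in PBS pH 7.4 with 1 mM MgCl2 produced a crude extract, used at 1 mg/mL protein. Exposure to 10 μM compound lasted 30 min, and aliquots were then heated for 3 min across 48°C-58°C, pooled and brought to 0.5% NP-40 at 4°C. The supernatant after 21,000xg for 90 min was quantified by TMTpro 16plex LC-MS/MS with channel sums equalised. Duplicate values are given as log-two fold change in thermal stability relative to solvent controls.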

[2] = compound: CN1CCc2c(c3ccccc3n2Cc2ccc(C(=O)NO)cc2)C1 [Tubastatin A]
Method in brief: as §1

[3] = compound: CNC(=O)C1=CC=CC=C1NC2=NC(=NC=C2Cl)NC3=C(C=C(C=C3)N4CCOCC4)OC
Method in brief: as §1

[4] = compound: CNC(=O)c1ccc(Nc2ncc(C(F)(F)F)c(NCc3nccnc3N(C)S(C)(=O)=O)n2)cc1 [defactinib]
Method in brief: as §1

[5] = compound: CNc1nc(-c2ccc3c(N)n[nH]c3c2)cc(N2C[C@@H](C(=O)NC3CCCCC3)CC[C@H]2C)n1
Method in brief: as §1

[6] = compound: COC(=O)N[C@@H](C)CNc1nccc(-c2cn(C(C)C)nc2-c2cc(Cl)cc(NS(C)(=O)=O)c2F)n1 [encorafenib]
Method in brief: as §1

[7] = compound: COC(=O)[C@H](CCSC)NC(=O)C1=C(C=C(C=C1)NC[C@H](CS)N)C2=CC=CC=C2
Method in brief: as §1

[8] = compound: COc1cc(Nc2ncc3c(n2)-c2ccc(Cl)cc2C(c2c(F)cccc2OC)=NC3)ccc1C(=O)O [alisertib]
Method in brief: as §1

[9] = compound: COc1cc2nc(-c3cc(F)ccc3O)nc(N[C@@H]3CNC[C@H]3C(C)(C)O)c2cc1OC
Method in brief: as §1

[10] = compound: COc1cc2ncnc(Nc3ccc(F)c(Cl)c3)c2cc1OCCCN1CCOCC1 [gefitinib]
Method in brief: as §1

Measured: log2 fold change

PMS2 (UniProt P54278)
inactive: [1] -0.001 | [2] -0.129 | [3] 0.03 | [4] 0.021 | [5] 0.103 | [6] 0.038 | [7] 0.089 | [8] 0.009 | [9] 0.02 | [10] 0.024

POP5 (UniProt Q969H6)
inactive: [1] 0.02 | [2] -0.001 | [3] 0.008 | [4] -0.039 | [5] 0.033 | [6] 0.038 | [7] -0.087 | [8] -0.051 | [9] 0.018 | [10] -0.002

POFUT1 (UniProt Q9H488)
inactive: [1] 0.003 | [2] 0.039 | [3] -0.006 | [4] -0.01 | [5] -0.022 | [6] -0.004 | [7] -0.025 | [8] 0.023 | [9] -0.009 | [10] -0.002

PPIC (UniProt P45877)
inactive: [1] -0.031 | [2] 0.089 | [3] 0.024 | [4] 0.077 | [5] -0.052 | [8] 0.004 | [10] 0.103

POTEI (UniProt P0CG38)
inactive: [1] 0.023 | [2] -0.012 | [3] 0.029 | [4] 0.004 | [5] 0.049 | [6] -0.056 | [7] 0.033 | [8] -0.004 | [9] -0.004 | [10] -0.016

PPFIA3 (UniProt O75145)
inactive: [1] 0.011 | [2] -0.005 | [3] -0.001 | [4] 0.109 | [5] 0.156 | [8] -0.03 | [9] 0.041 | [10] 0.056

POGK (UniProt Q9P215)
inactive: [1] -0.015 | [2] -0.011 | [3] 0.001 | [4] 0.059 | [5] -0.02 | [6] -0.052 | [7] 0.028 | [8] 0.071 | [9] -0.012 | [10] -0.013

PLS3 (UniProt P13797)
inactive: [1] -0.099 | [2] 0.023 | [3] 0.019 | [4] -0.033 | [5] 0.051 | [6] -0.011 | [7] 0.004 | [8] 0.004 | [9] 0.019 | [10] -0.004

POT1 (UniProt Q9NUX5)
inactive: [1] 0.06 | [2] -0.029 | [3] 0.027 | [4] 0.075 | [5] -0.024 | [6] -0.056 | [7] 0.03 | [8] -0.064 | [9] -0.011 | [10] 0.048

POLR2I (UniProt P36954)
inactive: [1] 0.108 | [2] 0.064 | [3] 0.052 | [4] 0.045 | [5] -0.018 | [8] -0.034 | [9] 0.03 | [10] -0.322

PMM1 (UniProt Q92871)
inactive: [1] -0.129 | [2] -0.013 | [3] -0.015 | [4] -0.011 | [5] -0.085 | [6] -0.008 | [7] 0.048 | [8] 0.025 | [10] -0.041

POLR2D (UniProt O15514)
inactive: [1] -0.009 | [2] 0.05 | [3] 0.01 | [4] -0.048 | [5] 0.026 | [6] -0.041 | [7] -0.184 | [8] 0.065 | [9] 0.046 | [10] -0.009

POLE3 (UniProt Q9NRF9)
inactive: [1] -0.051 | [2] 0.047 | [3] -0.002 | [4] 0.025 | [5] 0.044 | [6] -0.018 | [7] -0.071 | [8] 0.02 | [9] 0.02 | [10] 0.001

PLPP6 (UniProt Q8IY26)
inactive: [1] 0.011 | [2] 0.041 | [3] -0.05 | [4] -0.029 | [5] 0.154 | [8] 0.1 | [10] -0.028

POLE (UniProt Q07864)
inactive: [1] 0.003 | [2] -0.107 | [3] 0.06 | [4] 0.02 | [5] -0.035 | [6] 0.07 | [7] 0.045 | [8] -0.002 | [9] -0.009 | [10] -0.051

PLSCR1 (UniProt O15162)
inactive: [1] -0.036 | [2] -0.032 | [3] -0.012 | [4] -0.009 | [5] -0.021 | [6] 0.055 | [7] -0.194 | [8] 0.04 | [9] 0.059 | [10] -0.005

POP7 (UniProt O75817)
inactive: [1] -0.029 | [2] 0.173 | [3] 0.007 | [4] 0.024 | [5] 0 | [6] -0.037 | [7] -0.014 | [8] 0.142 | [9] 0.018 | [10] -0.287

POLR2M (UniProt P0CAP2)
inactive: [1] -0.002 | [2] 0.031 | [3] 0.021 | [4] 0.037 | [5] 0.035 | [7] -0.047 | [8] -0.011 | [9] 0.019 | [10] 0.027
active: [6] 0.33

Copied from the listing (2 entries):
PLSCR1 (UniProt O15162)
inactive: [1] -0.036 | [2] -0.032 | [3] -0.012 | [4] -0.009 | [5] -0.021 | [6] 0.055 | [7] -0.194 | [8] 0.04 | [9] 0.059 | [10] -0.005

POP7 (UniProt O75817)
inactive: [1] -0.029 | [2] 0.173 | [3] 0.007 | [4] 0.024 | [5] 0 | [6] -0.037 | [7] -0.014 | [8] 0.142 | [9] 0.018 | [10] -0.287

The list goes on:

POLR3F (UniProt Q9H1D9)
inactive: [1] -0.016 | [2] 0.014 | [3] -0.013 | [4] -0.015 | [5] 0.03 | [6] -0.002 | [7] -0.023 | [8] -0.009 | [9] -0.002 | [10] 0.003

PON2 (UniProt Q15165)
inactive: [1] 0.082 | [2] -0.004 | [3] -0.023 | [4] 0.021 | [5] -0.008 | [6] 0.063 | [7] -0.027 | [8] -0.052 | [9] 0.06 | [10] 0.146

POLR1E (UniProt Q9GZS1)
inactive: [1] 0.029 | [2] -0.087 | [3] 0.026 | [4] -0.046 | [5] 0.029 | [6] 0.049 | [7] 0.102 | [8] 0 | [9] -0.005 | [10] 0.014

POU2F1 isoform 6 (UniProt P14859)
inactive: [1] 0.01 | [2] -0.042 | [3] -0.028 | [4] -0.056 | [5] 0.047 | [6] 0.028 | [7] -0.048 | [8] -0.013 | [9] -0.024 | [10] -0.022

POP4 (UniProt O95707)
inactive: [1] -0.013 | [2] 0.039 | [3] -0.021 | [4] 0.003 | [5] -0.006 | [6] -0.016 | [7] 0 | [8] 0.01 | [9] -0.005 | [10] 0.012

POLR2F (UniProt P61218)
inactive: [1] 0.272 | [2] -0.07 | [3] 0.031 | [4] 0.085 | [5] 0.2 | [6] -0.036 | [7] -0.02 | [8] 0.065 | [9] 0.003 | [10] -0.097

POP1 (UniProt Q99575)
inactive: [1] -0.006 | [2] 0.024 | [3] -0.01 | [4] 0.01 | [5] 0.058 | [6] 0 | [7] -0.014 | [8] 0.008 | [9] 0.003 | [10] 0.006

PMPCB (UniProt O75439)
inactive: [1] -0.008 | [2] 0.055 | [3] -0.034 | [4] 0.02 | [5] -0.013 | [6] -0.011 | [7] 0.027 | [8] -0.042 | [9] 0.003 | [10] -0.074

POSTN (UniProt Q15063)
inactive: [1] 0.081 | [2] 0.051 | [3] 0.119 | [4] -0.153 | [6] -0.031 | [7] 0.033

PMS1 (UniProt P54277)
inactive: [1] -0.038 | [2] -0.046 | [3] -0.008 | [4] 0 | [5] -0.039 | [6] 0.046 | [7] 0.022 | [8] -0.01 | [10] 0.049

PPIB (UniProt P23284)
inactive: [1] 0.018 | [2] 0.021 | [3] -0.008 | [4] -0.018 | [5] 0.021 | [6] 0 | [7] -0.003 | [8] 0 | [9] 0.029 | [10] -0.008

PPHLN1 isoform 3 (UniProt Q8NEY8)
inactive: [2] -0.021 | [4] 0.019
